Measurements reported in the supplement of paper PMC10849652.
This is one part of the list.

Sequences of proteins named here, by UniProt entry; tags and fusion partners are left off. A change or cut given only in a name is not applied to a line headed by its entry.
UniProt P51452: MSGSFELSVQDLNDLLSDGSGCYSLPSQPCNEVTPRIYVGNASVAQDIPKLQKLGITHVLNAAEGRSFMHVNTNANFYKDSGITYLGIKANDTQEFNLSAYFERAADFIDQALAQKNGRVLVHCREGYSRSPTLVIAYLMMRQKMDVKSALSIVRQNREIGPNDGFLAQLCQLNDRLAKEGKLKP
UniProt P41567, whole entry, looked up: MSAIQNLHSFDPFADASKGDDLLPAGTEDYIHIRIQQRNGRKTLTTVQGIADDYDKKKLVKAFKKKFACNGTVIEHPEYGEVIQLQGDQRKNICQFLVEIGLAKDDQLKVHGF
UniProt Q9BUP0: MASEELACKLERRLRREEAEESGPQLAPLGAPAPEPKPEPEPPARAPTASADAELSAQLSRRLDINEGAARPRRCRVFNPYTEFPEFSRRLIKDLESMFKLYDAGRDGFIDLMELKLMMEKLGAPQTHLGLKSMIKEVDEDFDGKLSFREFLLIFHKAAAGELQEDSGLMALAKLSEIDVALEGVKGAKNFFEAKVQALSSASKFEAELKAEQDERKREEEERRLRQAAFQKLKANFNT
UniProt O43324: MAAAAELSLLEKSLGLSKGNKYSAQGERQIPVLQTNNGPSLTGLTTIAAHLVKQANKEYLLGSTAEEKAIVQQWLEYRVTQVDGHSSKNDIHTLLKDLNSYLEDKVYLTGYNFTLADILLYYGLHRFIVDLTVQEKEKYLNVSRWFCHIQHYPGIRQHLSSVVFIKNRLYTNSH
UniProt P47813, whole entry, looked up: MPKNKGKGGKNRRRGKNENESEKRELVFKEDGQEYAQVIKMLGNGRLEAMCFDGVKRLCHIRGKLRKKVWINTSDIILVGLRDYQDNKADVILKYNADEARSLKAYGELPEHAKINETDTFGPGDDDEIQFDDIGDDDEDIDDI
UniProt Q99956: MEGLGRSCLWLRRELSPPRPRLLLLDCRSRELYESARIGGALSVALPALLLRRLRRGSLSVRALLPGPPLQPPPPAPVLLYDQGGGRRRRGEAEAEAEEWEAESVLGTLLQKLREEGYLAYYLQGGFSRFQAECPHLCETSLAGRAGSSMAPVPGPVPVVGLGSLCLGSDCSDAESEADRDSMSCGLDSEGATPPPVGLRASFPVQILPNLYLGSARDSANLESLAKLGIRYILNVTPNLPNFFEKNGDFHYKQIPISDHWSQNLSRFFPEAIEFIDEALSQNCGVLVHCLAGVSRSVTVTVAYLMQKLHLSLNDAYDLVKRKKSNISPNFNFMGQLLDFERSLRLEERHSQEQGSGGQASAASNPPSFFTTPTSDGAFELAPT
UniProt Q96EV8: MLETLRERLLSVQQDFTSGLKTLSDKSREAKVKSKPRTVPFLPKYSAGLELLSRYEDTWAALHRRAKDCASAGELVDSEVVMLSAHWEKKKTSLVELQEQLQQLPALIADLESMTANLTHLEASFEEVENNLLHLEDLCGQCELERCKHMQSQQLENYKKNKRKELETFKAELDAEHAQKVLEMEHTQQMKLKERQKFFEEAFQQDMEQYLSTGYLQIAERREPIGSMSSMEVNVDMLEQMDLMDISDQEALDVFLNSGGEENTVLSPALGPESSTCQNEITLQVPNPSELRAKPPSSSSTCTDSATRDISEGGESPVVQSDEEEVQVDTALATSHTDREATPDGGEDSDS
UniProt Q6P1R4: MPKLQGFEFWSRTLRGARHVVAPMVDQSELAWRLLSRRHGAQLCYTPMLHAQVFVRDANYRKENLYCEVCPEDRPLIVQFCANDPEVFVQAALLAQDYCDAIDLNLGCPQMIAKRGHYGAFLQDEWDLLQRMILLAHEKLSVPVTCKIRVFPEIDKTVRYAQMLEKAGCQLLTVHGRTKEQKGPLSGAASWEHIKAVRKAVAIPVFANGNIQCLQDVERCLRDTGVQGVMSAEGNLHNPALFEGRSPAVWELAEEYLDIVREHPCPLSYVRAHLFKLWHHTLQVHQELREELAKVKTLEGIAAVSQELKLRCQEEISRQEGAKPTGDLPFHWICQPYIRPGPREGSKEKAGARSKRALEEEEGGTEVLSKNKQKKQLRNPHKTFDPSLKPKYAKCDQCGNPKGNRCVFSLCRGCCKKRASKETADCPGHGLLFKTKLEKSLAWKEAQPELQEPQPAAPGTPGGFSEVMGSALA
UniProt Q9BTV6: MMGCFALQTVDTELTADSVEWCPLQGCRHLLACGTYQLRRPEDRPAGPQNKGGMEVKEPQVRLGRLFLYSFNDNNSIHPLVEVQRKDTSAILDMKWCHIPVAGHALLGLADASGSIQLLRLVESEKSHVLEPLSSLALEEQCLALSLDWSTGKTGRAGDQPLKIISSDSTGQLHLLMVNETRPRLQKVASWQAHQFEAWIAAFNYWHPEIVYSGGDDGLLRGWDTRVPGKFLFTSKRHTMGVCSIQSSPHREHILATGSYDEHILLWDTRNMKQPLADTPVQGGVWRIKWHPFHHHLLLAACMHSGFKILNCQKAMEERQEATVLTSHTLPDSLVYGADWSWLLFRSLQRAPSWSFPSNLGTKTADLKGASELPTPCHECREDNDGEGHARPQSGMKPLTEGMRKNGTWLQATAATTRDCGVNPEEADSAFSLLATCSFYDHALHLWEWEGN
UniProt Q9H9B1: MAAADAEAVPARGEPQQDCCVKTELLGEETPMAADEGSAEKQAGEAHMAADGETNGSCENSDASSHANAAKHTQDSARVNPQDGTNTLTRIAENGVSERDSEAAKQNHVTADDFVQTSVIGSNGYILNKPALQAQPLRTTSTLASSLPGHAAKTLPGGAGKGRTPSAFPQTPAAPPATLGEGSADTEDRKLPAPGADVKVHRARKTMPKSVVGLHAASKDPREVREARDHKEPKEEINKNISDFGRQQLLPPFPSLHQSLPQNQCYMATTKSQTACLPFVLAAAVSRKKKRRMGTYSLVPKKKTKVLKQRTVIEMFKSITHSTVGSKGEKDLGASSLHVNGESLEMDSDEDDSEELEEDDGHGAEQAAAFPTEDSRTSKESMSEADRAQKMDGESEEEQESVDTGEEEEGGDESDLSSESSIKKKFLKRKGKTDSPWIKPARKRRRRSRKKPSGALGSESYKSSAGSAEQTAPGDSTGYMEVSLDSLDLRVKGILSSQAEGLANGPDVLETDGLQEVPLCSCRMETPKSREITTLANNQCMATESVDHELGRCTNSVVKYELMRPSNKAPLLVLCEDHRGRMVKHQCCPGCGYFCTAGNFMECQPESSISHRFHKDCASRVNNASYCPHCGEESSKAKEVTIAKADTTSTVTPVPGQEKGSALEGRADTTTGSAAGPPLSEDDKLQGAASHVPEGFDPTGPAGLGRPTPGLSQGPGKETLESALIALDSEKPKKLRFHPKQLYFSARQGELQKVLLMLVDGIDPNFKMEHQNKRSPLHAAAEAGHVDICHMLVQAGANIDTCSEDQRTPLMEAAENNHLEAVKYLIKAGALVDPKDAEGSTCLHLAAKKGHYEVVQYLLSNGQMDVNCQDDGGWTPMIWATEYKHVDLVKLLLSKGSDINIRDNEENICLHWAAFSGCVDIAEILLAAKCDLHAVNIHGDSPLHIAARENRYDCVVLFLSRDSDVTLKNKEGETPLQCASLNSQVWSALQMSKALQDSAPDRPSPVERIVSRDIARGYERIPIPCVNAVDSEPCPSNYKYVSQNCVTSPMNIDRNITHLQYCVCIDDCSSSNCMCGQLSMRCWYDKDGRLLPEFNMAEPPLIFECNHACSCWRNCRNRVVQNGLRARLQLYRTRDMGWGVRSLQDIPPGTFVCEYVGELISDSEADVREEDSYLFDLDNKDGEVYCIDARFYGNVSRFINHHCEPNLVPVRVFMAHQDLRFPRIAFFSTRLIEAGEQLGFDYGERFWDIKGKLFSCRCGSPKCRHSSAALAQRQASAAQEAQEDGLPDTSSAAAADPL
UniProt O14641: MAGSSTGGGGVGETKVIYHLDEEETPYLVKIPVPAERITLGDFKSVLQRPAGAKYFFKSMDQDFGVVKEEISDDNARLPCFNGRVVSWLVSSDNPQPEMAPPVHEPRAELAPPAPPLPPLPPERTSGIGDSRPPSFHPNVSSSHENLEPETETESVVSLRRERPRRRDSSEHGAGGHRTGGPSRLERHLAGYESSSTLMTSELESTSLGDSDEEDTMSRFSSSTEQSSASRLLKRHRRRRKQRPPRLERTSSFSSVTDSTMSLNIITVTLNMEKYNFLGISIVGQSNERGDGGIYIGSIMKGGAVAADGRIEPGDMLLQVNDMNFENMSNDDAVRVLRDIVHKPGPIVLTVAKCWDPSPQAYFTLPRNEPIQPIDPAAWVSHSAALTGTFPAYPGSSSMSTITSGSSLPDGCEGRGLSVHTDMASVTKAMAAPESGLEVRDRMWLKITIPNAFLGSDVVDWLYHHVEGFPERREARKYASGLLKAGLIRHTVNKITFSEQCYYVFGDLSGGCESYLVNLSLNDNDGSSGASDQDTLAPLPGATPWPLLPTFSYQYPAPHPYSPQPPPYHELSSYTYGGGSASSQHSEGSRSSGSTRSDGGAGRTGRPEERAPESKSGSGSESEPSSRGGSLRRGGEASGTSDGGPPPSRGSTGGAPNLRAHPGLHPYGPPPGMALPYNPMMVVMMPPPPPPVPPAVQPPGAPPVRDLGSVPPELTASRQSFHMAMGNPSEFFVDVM
UniProt O75521: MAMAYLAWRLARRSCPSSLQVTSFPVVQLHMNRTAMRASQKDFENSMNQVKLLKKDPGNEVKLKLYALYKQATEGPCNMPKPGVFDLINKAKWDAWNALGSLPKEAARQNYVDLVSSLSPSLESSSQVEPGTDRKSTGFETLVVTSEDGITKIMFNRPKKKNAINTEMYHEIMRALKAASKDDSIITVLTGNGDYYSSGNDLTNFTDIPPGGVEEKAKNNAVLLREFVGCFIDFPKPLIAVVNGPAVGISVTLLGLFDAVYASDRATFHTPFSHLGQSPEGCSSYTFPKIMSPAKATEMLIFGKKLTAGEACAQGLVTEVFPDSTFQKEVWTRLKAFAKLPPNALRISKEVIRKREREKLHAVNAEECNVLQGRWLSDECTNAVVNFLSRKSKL
UniProt P42892: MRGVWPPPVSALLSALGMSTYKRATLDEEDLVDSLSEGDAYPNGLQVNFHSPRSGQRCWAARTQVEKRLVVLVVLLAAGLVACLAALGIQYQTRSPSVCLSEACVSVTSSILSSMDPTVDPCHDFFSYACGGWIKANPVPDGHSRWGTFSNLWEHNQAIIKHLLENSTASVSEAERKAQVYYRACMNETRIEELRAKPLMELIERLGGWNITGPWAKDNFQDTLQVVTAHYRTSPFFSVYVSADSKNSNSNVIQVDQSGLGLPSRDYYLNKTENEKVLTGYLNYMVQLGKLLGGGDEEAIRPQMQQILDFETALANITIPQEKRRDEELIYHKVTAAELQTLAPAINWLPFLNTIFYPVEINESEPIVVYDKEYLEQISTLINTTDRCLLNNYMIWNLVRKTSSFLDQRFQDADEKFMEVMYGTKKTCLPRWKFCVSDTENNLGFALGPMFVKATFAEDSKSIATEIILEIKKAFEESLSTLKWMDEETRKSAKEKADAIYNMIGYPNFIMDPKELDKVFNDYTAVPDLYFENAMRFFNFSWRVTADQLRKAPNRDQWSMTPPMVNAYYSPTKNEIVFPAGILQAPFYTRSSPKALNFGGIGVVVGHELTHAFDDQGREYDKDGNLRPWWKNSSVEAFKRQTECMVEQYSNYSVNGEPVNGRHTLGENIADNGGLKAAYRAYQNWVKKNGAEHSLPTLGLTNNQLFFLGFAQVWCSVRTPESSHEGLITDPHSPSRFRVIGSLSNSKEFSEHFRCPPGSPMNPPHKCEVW
UniProt Q9H2P9: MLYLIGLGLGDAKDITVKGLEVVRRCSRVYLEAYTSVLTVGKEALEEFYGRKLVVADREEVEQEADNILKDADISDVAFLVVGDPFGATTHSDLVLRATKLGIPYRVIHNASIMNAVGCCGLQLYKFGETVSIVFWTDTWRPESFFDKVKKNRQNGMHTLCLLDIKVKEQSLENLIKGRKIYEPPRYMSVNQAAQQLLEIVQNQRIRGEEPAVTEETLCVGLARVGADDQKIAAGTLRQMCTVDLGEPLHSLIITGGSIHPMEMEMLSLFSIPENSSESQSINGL
UniProt Q9H410: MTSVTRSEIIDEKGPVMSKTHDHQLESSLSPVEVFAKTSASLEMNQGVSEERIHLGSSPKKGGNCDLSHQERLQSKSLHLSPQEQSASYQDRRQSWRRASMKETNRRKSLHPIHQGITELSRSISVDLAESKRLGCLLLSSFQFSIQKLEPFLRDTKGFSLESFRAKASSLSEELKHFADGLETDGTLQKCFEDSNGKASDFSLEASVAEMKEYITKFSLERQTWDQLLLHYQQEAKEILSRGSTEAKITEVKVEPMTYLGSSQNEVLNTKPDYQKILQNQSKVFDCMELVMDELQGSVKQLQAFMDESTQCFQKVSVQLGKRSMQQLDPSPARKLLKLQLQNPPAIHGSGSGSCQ
UniProt O00559: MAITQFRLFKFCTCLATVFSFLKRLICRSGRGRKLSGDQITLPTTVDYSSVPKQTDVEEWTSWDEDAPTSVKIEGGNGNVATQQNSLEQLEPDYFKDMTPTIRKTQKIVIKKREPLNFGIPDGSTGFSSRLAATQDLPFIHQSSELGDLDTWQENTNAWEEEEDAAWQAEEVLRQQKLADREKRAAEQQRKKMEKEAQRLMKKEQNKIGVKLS

Legend:
Assay in all cases: log2 fold change, soluble protein after heating vs DMSO (PISA); higher = thermal stabilisation; K562 lysate, 10 uM; active = over 0.2 and 3.5 SD of the protein, either way, in both replicates (recomputed)
erlotinib = compound: C#Cc1cccc(Nc2ncnc3cc(OCCOC)c(OCCOC)cc23)c1 [erlotinib]
Summary of the method: (§1)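 A 30 min treatment with 10 μM compound was applied to crude K562 extract at 1 mg/mL protein in PBS pH 7.4 with 1 mM MgCl2. Heating for 3 min spanned 48°C-58°C, after which aliquots were pooled, adjusted to 0.5% NP-40 at 4°C and spun at 21,000xg for 90 min. TMTpro 16plex LC-MS/MS of the supernatant, with channel sums equalised, gave values recorded as log-two fold change in thermal stability against solvent controls, from duplicates.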

[1] = compound: C/C(=N\NC(=O)C1=CC(=CC=C1)S(=O)(=O)N2CCOCC2)/C3=C(C=CC(=C3)Cl)O
Summary of the method: as §1

[2] = compound: C1=CC(=CC=C1C2=NC3=C(N2)C=C(C=C3)C(=O)N)OC4=CC=C(C=C4)Cl
Summary of the method: as §1

[3] = compound: C1=CC2=C(C=CC(=C2)/C=C\3/C(=O)NC(=NCC4=CC=CS4)S3)N=C1
Summary of the method: as §1

[4] = compound: C1=CC2=NC=CN=C2C=C1/C=C/3\C(=O)NC(=O)S3
Summary of the method: as §1

[5] = compound: C1=CC=C(C=C1)C2=NC(=C(N2)C3=CC=NC=C3)C4=CC(=C(C=C4)Cl)O
Summary of the method: as §1

[6] = compound: C1=CC=C2C(=C1)C3=NNC4=CC=CC(=C43)C2=O
Summary of the method: as §1

[7] = compound: C1CCN(C1)C(=O)NC2=CC=CC(=C2)NC3=NC=C(C(=N3)NCCC4=CN=CN4)Br
Summary of the method: as §1

[8] = compound: C1CN(CCC1(CC2=CC=C(C=C2)Cl)N)C3=NC=NC4=C3C=CN4
Summary of the method: as §1

IRAK-1-4 Inhibitor I = compound: C1COCCN1CCN2C3=CC=CC=C3N=C2NC(=O)C4=CC(=CC=C4)[N+](=O)[O-] [IRAK-1-4 Inhibitor I]
Summary of the method: as §1

Measured: log2 fold change

DUSP3 (UniProt P51452)
inactive: erlotinib 0.002 | [1] 0.033 | [2] 0 | [3] -0.02 | [4] -0.027 | [5] 0.013 | [6] -0.013 | [7] -0.007 | [8] 0.007 | IRAK-1-4 Inhibitor I -0.028

EDRF1 (UniProt Q3B7T1)
inactive: erlotinib 0.015 | [1] -0.091 | [2] 0.014 | [3] 0.029 | [4] -0.051 | [5] -0.051 | [6] -0.108 | [7] -0.047 | [8] 0.042 | IRAK-1-4 Inhibitor I 0.092

EIF1 (UniProt P41567)
inactive: erlotinib -0.006 | [1] -0.022 | [2] 0.063 | [3] -0.031 | [4] -0.004 | [5] 0.044 | [6] 0.011 | [7] -0.027 | [8] -0.023 | IRAK-1-4 Inhibitor I 0.02

EFHD1 (UniProt Q9BUP0)
inactive: erlotinib 0.02 | [1] 0.203 | [2] 0.004 | [3] 0.066 | [4] -0.032 | [5] 0.066 | [6] -0.179 | [7] -0.055 | [8] 0.105 | IRAK-1-4 Inhibitor I -0.01

EI24 (UniProt O14681)
inactive: erlotinib -0.039 | [1] -0.113 | [2] -0.047 | [3] 0.022 | [4] 0.051 | [5] -0.074 | [6] -0.145 | [7] -0.008 | [8] 0.007 | IRAK-1-4 Inhibitor I 0.067

EEF1E1 (UniProt O43324)
inactive: erlotinib 0.04 | [1] -0.003 | [2] -0.037 | [3] -0.014 | [4] -0.007 | [5] -0.014 | [6] -0.008 | [7] 0 | [8] 0.034 | IRAK-1-4 Inhibitor I -0.014

EIF1AX (UniProt P47813)
inactive: erlotinib -0.024 | [1] -0.087 | [2] 0.038 | [3] -0.007 | [4] -0.033 | [5] -0.014 | [6] -0.044 | [7] 0.004 | [8] -0.037 | IRAK-1-4 Inhibitor I -0.011

DUSP9 (UniProt Q99956)
inactive: erlotinib 0.066 | [1] 0.101 | [2] 0 | [3] -0.239 | [4] 0.114 | [5] -0.003 | [6] 0.26 | [7] 0.066 | [8] 0.008 | IRAK-1-4 Inhibitor I -0.053

EEF1A2 (UniProt Q05639)
inactive: erlotinib 0.015 | [1] 0.011 | [2] 0.021 | [3] -0.018 | [4] -0.035 | [5] -0.002 | [6] -0.034 | [7] 0.006 | [8] 0.006 | IRAK-1-4 Inhibitor I -0.002

DTNBP1 (UniProt Q96EV8)
inactive: erlotinib 0.026 | [1] 0.015 | [2] 0.004 | [3] -0.048 | [4] -0.019 | [5] 0.016 | [6] -0.009 | [7] 0.025 | [8] 0.009 | IRAK-1-4 Inhibitor I -0.023

DUS1L (UniProt Q6P1R4)
inactive: erlotinib -0.013 | [1] -0.05 | [2] 0.047 | [3] 0.041 | [4] -0.029 | [5] -0.056 | [6] 0.049 | [7] -0.068 | [8] -0.01 | IRAK-1-4 Inhibitor I 0.067

EFNB1 (UniProt P98172)
inactive: erlotinib -0.012 | [1] 0.006 | [2] -0.011 | [3] -0.126 | [4] 0 | [5] -0.046 | [6] -0.161 | [7] -0.063 | [8] 0.07 | IRAK-1-4 Inhibitor I 0.039

DPH7 (UniProt Q9BTV6)
inactive: erlotinib 0.018 | [1] -0.012 | [2] -0.019 | [3] -0.051 | [4] 0.02 | [5] 0.01 | [6] -0.001 | [7] -0.004 | [8] 0.019 | IRAK-1-4 Inhibitor I 0.068

ECSIT (UniProt Q9BQ95)
inactive: erlotinib -0.001 | [1] 0.032 | [2] 0.015 | [3] 0.088 | [4] -0.04 | [5] -0.068 | [6] -0.057 | [7] 0.026 | [8] 0.014 | IRAK-1-4 Inhibitor I 0.032

DYSF isoform 13 (UniProt O75923)
inactive: erlotinib 0.161 | [1] -0.01 | [2] 0.137 | [3] 0.06 | [4] -0.034 | [5] 0.101 | [6] 0.031 | [7] 0.085 | [8] 0.176 | IRAK-1-4 Inhibitor I 0.025

EHMT1 (UniProt Q9H9B1)
inactive: erlotinib 0.042 | [1] -0.033 | [2] 0.065 | [3] -0.011 | [4] -0.046 | [5] -0.018 | [6] -0.014 | [7] 0.005 | [8] -0.01 | IRAK-1-4 Inhibitor I 0.028

EED, A0A5F9ZI63
inactive: erlotinib 0.019 | [1] 0.042 | [2] -0.033 | [3] 0.017 | [4] -0.019 | [5] -0.012 | [6] 0.003 | [7] 0.003 | [8] 0.023 | IRAK-1-4 Inhibitor I 0.021

DVL2 (UniProt O14641)
inactive: erlotinib 0.012 | [1] -0.028 | [2] 0.011 | [3] -0.015 | [4] 0.03 | [5] -0.055 | [6] -0.029 | [7] 0.001 | [8] 0.067 | IRAK-1-4 Inhibitor I -0.073

ECI2 (UniProt O75521)
inactive: erlotinib 0.032 | [1] 0.01 | [2] 0.024 | [3] -0.011 | [4] 0.022 | [5] -0.019 | [6] -0.111 | [7] -0.03 | [8] 0.045 | IRAK-1-4 Inhibitor I 0.054

ECE1 (UniProt P42892)
inactive: erlotinib -0.021 | [1] 0.002 | [2] 0.03 | [3] -0.077 | [4] 0.008 | [5] -0.029 | [6] -0.013 | [7] -0.007 | [8] -0.019 | IRAK-1-4 Inhibitor I -0.013

DPH5 isoform 5 (UniProt Q9H2P9)
inactive: erlotinib 0.008 | [1] -0.028 | [2] -0.025 | [3] 0.066 | [4] -0.017 | [5] 0.074 | [6] 0.046 | [7] -0.027 | [8] 0.027 | IRAK-1-4 Inhibitor I 0.009

DYM (UniProt Q7RTS9)
inactive: erlotinib -0.072 | [1] -1.99 | [2] -0.081 | [3] 0.002 | [4] 0.015 | [5] -0.017 | [6] -0.062 | [7] -0.03 | [8] 0.119 | IRAK-1-4 Inhibitor I 0.024

DPY19L1, A0A1B0GW05
inactive: erlotinib 0.004 | [1] 0.033 | [2] -0.016 | [3] 0.022 | [4] -0.024 | [5] -0.017 | [6] 0.006 | [7] -0.012 | [8] -0.026 | IRAK-1-4 Inhibitor I 0.078

Quoted at random: 2 entries already listed.
DYM (UniProt Q7RTS9)
inactive: erlotinib -0.072 | [1] -1.99 | [2] -0.081 | [3] 0.002 | [4] 0.015 | [5] -0.017 | [6] -0.062 | [7] -0.03 | [8] 0.119 | IRAK-1-4 Inhibitor I 0.024

DUSP3 (UniProt P51452)
inactive: erlotinib 0.002 | [1] 0.033 | [2] 0 | [3] -0.02 | [4] -0.027 | [5] 0.013 | [6] -0.013 | [7] -0.007 | [8] 0.007 | IRAK-1-4 Inhibitor I -0.028

(listing goes on)

DSN1 (UniProt Q9H410)
inactive: erlotinib -0.021 | [1] 0.03 | [2] 0.037 | [3] 0.014 | [4] 0.01 | [5] -0.025 | [6] 0.032 | [7] -0.034 | [8] -0.024 | IRAK-1-4 Inhibitor I 0.002

DPP9 isoform 2 (UniProt Q86TI2)
inactive: erlotinib 0.009 | [1] 0.03 | [2] 0.024 | [3] 0.017 | [4] -0.003 | [5] 0.004 | [6] -0.005 | [7] 0.019 | [8] 0.014 | IRAK-1-4 Inhibitor I -0.02

DROSHA (UniProt Q9NRR4)
inactive: erlotinib 0.048 | [1] -0.016 | [2] -0.027 | [3] -0.021 | [4] 0.075 | [5] -0.017 | [6] -0.033 | [7] 0.044 | [8] 0.054 | IRAK-1-4 Inhibitor I -0.02

EBAG9 isoform 2 (UniProt O00559)
inactive: erlotinib 0.1 | [1] 0 | [2] -0.02 | [3] 0.051 | [4] 0.005 | [5] -0.013 | [6] -0.024 | [7] -0.013 | [8] 0.004 | IRAK-1-4 Inhibitor I 0.165
